Source: the supplement of paper PMC8256030
Several values for one entry are separate records, joined by “and”; a condition that tells them apart may be missing. Equal entries are not always repeated. Structures can show the parent of a compound that is named as a salt. Some of the results follow. Repeats in this data set agree poorly, so a single value says little.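 HEK293T cells were given each compound shortly before transfection with a reporter in which red mCherry is followed by the SARS-CoV-2 frameshift element and then GFP in the −1 frame, so GFP appears only after frameshifting.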

What was measured:
[1] = system: HEK293T; experiment: percent viability (nuclei count) relative to control; higher = more viable cells; settings: 10 µM; 24 h
[2] = system: SARS-CoV-2 -1 PRF reporter mCherry-FSE-GFP(-1); experiment: mCherry (red) intensity as percent of control; higher = higher upstream reporter expression; settings: 10 µM; 24 h; HEK293T
[3] = system: SARS-CoV-2 -1 PRF reporter mCherry-FSE-GFP(-1); experiment: percent effect, decrease of GFP/mCherry ratio (-1 PRF reporter) relative to controls; higher = stronger frameshift inhibition; settings: 10 µM; 24 h; HEK293T

SMILES	percent viability [1]	mCherry [2]	percent effect [3]
COc1ccc(C(=O)c2c(C)n(CCN3CCOCC3)c3ccccc23)cc1 [pravadoline]	137%	98.8%	-1.36%
C=CCC1(CC=C)C(=O)NC(=O)NC1=O [allobarbital]	317%	97.4%	-5.48%
COC(=O)C1=CCCN(C)C1	269%	98.2%	-0.905%
[N-]=[N+]=CC(=O)OC[C@H](N)C(=O)O	241%	88.6%	2.16%
CC(C)N(CCNC(=O)CN1CCCC1=O)C(C)C [pramiracetam]	313%	121%	1.22%
N.N.[Cl][Pt][Cl] [Cisplatin]	312%	106%	-7.35%
Cc1cc(N(C)C)ccc1[P+](=O)O [Toldimfos]	237%	84.3%	-1.96%
CCNC(C)Cc1cccc(C(F)(F)F)c1 (stereo unspecified) [fenfluramine]	236%	104%	2.58%
CC(CC(C(N)=O)(c1ccccc1)c1ccccc1)N(C)C (stereo unspecified) [dimevamide]	122%	95.2%	-5.63%
CCCCOC(=O)c1ccccc1C(=O)OCCCC	295%	91.1%	0.179%
COc1ccc(O)c(C(C)(C)C)c1	167%	109%	-9.87%
O=C1C[C@@H]2OCC=C3CN4CC[C@]56c7ccccc7N1[C@H]5[C@H]2[C@H]3C[C@H]46	183%	104%	-11.6%
O=[N+]([O-])c1cc([As](=O)(O)O)ccc1O [roxarsone]	184%	105%	-0.0383%
CCC1(CC)C(=O)NC(=O)N(c2ccccc2)C1=O [phetharbital]	153%	79%	-5.73%
CC(=O)OCC1=C(C(=O)O)N2C(=O)[C@@H](NC(=O)CCC[C@@H](N)C(=O)O)[C@H]2SC1	447%	102%	-2.18%
CN(C)C(=O)Oc1cccc([N+](C)(C)C)c1 [neostigmine bromide]	148% and 415%	91.5% and 108%	-7% and -5.34%
NCC(O)c1ccc(O)cc1 (stereo unspecified)	338%	105%	-0.416%
O=[N+]([O-])O[C@@H]1CO[C@H]2[C@@H]1OC[C@@H]2O [isosorbide mononitrate]	187%	105%	-1.89%
Cc1ccc(-c2nc3ccc(C)cn3c2CC(=O)N(C)C)cc1 [zolpidem]	224% and 212%	104% and 107%	0.0613% and 0.00515%
CCN(C)C(C)C(O)c1ccccc1 (stereo unspecified) [etafedrine]	317%	57.2%	1.4%
C=CCN1CC[C@]23c4c5ccc(O)c4O[C@H]2/C(=N/N=C2\CC[C@@]4(O)[C@H]6Cc7ccc(O)c8c7[C@@]4(CCN6CC=C)[C@H]2O8)CC[C@@]3(O)[C@H]1C5 [Naloxonazine]	226%	78%	-1.17%
CN(C)C1C(=O)C(C(N)=O)=C(O)C2(O)C(=O)C3=C(O)c4c(O)cccc4C(C)(O)C3CC12 (stereo unspecified)	131%	107%	-6.94%
CN(C)[C@@H]1C(=O)C(C(N)=O)=C(O)[C@@]2(O)C(=O)C3=C(O)c4c(O)ccc(Cl)c4[C@@](C)(O)[C@H]3C[C@@H]12 [chlortetracycline]	140%	94.6%	-4.08%
Nc1c(Cl)cc(CC2=NCCN2)cc1Cl [nemazoline]	219%	94.7%	-6.65%
Cc1nnc2n1-c1ccc(Cl)cc1C(c1ccccc1)=NC2 [alprazolam]	31.1%	84.8%	-9.92%

SMILES	percent viability [1]	mCherry [2]	percent effect [3]
C=CC[C@]1(O)CC[C@H]2[C@@H]3CCC4=CC(=O)CCC4=C3C=C[C@@]21C	263%	130%	1.31%
CN(C)[C@@H]1C(=O)C(C(N)=O)=C(O)[C@@]2(O)C(=O)C3=C(O)c4c(O)cccc4[C@@](C)(O)[C@H]3[C@H](O)[C@@H]12 [oxytetracycline]	106%	90.1%	-0.608%
C=CCC1(C(C)CCC)C(=O)NC(=S)NC1=O (stereo unspecified)	140%	113%	-5.58%
C[C@H]1CC(=O)C[C@@H]2CC[C@H]3[C@@H]4CC[C@H](O)[C@@]4(C)CC[C@@H]3[C@]21C [mesterolone]	154%	102%	-0.109%
CNCC(C)c1ccccc1 (stereo unspecified) [phenpromethamine]	273%	107%	-2.6%
CN1[C@@H]2C[C@@H](OC(=O)[C@H](CO)c3ccccc3)C[C@H]1[C@@H]1O[C@@H]12	175%	101%	-1.19%
CCOc1ccc(C(C)(C)COCc2cccc(Oc3ccccc3)c2)cc1 [etofenprox]	202%	99.9%	-2.95%
COc1ccc(OC)c(C(O)C(C)NC(C)(C)C)c1 (stereo unspecified) [butaxamine]	161%	93.1%	-4.5%
O=C1CN=C(c2ccccc2)c2cc([N+](=O)[O-])ccc2N1 [nitrazepam]	275%	99.9%	-3.04%
Cc1nnc2n1-c1ccc(Cl)cc1C(c1ccccc1Cl)=NC2 [triazolam]	332%	92.4%	-5.49%
O=C(O)c1cc(/N=N/c2ccc(S(=O)(=O)Nc3ccccn3)cc2)ccc1O [sulfasalazine]	–	77.3%	–
CN(C)[C@@H]1C(=O)C(C(N)=O)=C(O)[C@@]2(O)C(=O)C3=C(O)c4c(O)cccc4[C@@](C)(O)[C@H]3[C@H](O)[C@@H]12 [Oxytetracycline]	128%	74.7%	-5.2%
COc1cc(NS(C)(=O)=O)ccc1Nc1c2ccccc2nc2ccccc12	–	152%	–
CC(C)(C)NCC(O)c1ccccc1Cl (stereo unspecified) [tulobuterol]	380% and 210%	–	-1.05% and -2.55%
CC(C)=CC1C(C(=O)OCN2C(=O)C3=C(CCCC3)C2=O)C1(C)C (stereo unspecified) [tetramethrin]	337%	110%	2.43%
C#CC1(OC(N)=O)CCCCC1 [ethinamate]	161%	101%	-1.3%
CCC1(c2ccc(N)cc2)CCC(=O)NC1=O (stereo unspecified) [aminoglutethimide]	182% and 317%	–	-1.51% and -5.85%
CC(=O)O[C@H]1C[C@@H]2CC[C@@H]3[C@H](CC[C@@]4(C)[C@H]3C[C@H]([N+]3(C)CCCCC3)[C@@H]4OC(C)=O)[C@@]2(C)C[C@@H]1[N+]1(C)CCCCC1 [pancuronium bromide]	261% and 205%	–	0.613% and 2.28%
C=CCN1CC[C@]23c4c5ccc(O)c4O[C@H]2C(=O)CC[C@@]3(O)[C@H]1C5 [naloxone]	328% and 251%	–	-2.88% and -6.7%
O=c1[nH]c2ccccc2n1CCCN1CCC(n2c(=O)[nH]c3cc(Cl)ccc32)CC1 [domperidone]	332% and 328%	–	-2.76% and -1.77%
COc1ccc(C(CN(C)C)C2(O)CCCCC2)cc1 (stereo unspecified) [venlafaxine]	274% and 194%	–	0.0345% and -1.82%
COc1ccc(CCN2CCC(Nc3nc4ccccc4n3Cc3ccc(F)cc3)CC2)cc1 [astemizole]	548% and 344%	–	-2.92% and -7.14%
O=C(O)CCCCC(=O)O	–	102%	–
Cc1ccc(/C(=C\CN2CCCC2)c2ccccn2)cc1 [triprolidine]	–	101% and 89.7%	–
CCC1(c2ccccc2)C(=O)NCNC1=O [primidone]	–	110%	–

Already shown: an excerpt of the list.
SMILES	percent viability [1]	mCherry [2]	percent effect [3]
CCOc1ccc(C(C)(C)COCc2cccc(Oc3ccccc3)c2)cc1 [etofenprox]	202%	99.9%	-2.95%
COc1ccc(OC)c(C(O)C(C)NC(C)(C)C)c1 (stereo unspecified) [butaxamine]	161%	93.1%	-4.5%
O=C1CN=C(c2ccccc2)c2cc([N+](=O)[O-])ccc2N1 [nitrazepam]	275%	99.9%	-3.04%

Going on with the list.

SMILES	percent viability [1]	mCherry [2]	percent effect [3]
O=C(CCCN1CCC2(CC1)C(=O)NCN2c1ccccc1)c1ccc(F)cc1 [spiperone]	392% and 257%	–	11.3% and -2.59%
O.O.O.O.O=C([O-])CC(O)(CC(=O)[O-])C(=O)[O-].[Li+].[Li+].[Li+]	–	100%	–
Cc1ncc([N+](=O)[O-])n1CCO [metronidazole]	–	85.1% and 86.4%	–
CO[C@@]12[C@H](COC(N)=O)C3=C(C(=O)C(C)=C(N)C3=O)N1C[C@@H]1N[C@@H]12	–	178%	–
CC(O)C(=O)O.N (stereo unspecified)	–	87.8%	–
CC[C@H](C)C(=O)O[C@H]1C[C@H](O)C=C2C=C[C@H](C)[C@H](CC[C@@H]3C[C@@H](O)CC(=O)O3)[C@H]21 [Pravastatin Lactone]	–	90.4%	–
CNC(=O)Oc1ccc2c(c1)[C@]1(C)CCN(C)[C@@H]1N2C [Physostigmine sulfate]	267%	88.1%	2.09%
COc1ccc2c(c1)[C@]13CCCC[C@@H]1[C@H](C2)N(C)CC3 [dextromethorphan]	242% and 159% and 208%	–	-4.46% and -1.01% and -1.27%
CC(O)(CS(=O)(=O)c1ccc(F)cc1)C(=O)Nc1ccc(C#N)c(C(F)(F)F)c1 (stereo unspecified) [bicalutamide]	226% and 146%	–	0.671% and -15.3%
CO[C@@]12[C@H](COC(N)=O)C3=C(C(=O)C(C)=C(N)C3=O)N1C[C@@H]1N[C@@H]12 [Mitomycin C]	–	28.4%	–
CC(C)CC(N(C)C)C1(c2ccc(Cl)cc2)CCC1 (stereo unspecified) [sibutramine]	307% and 164%	–	-3.47% and -1.36%
COc1ccc2c(c1)c(CC(=O)O)c(C)n2C(=O)c1ccc(Cl)cc1 [indometacin]	–	107% and 102%	–
NC(=O)C(c1ccccc1)(c1ccccc1)[C@@H]1CCN(CCc2ccc3c(c2)CCO3)C1	–	113%	–
COC1=CC(=O)C[C@@H](C)[C@]12Oc1c(Cl)c(OC)cc(OC)c1C2=O	–	105%	–
Cn1c2ncnc-2c(O)n(C)c1=O [Oxtriphylline]	–	91.2%	–
CC(C)NC[C@@H](O)COc1cccc2ccccc12	–	127%	–
O=C(O)c1cc(O)c(O)c(O)c1	–	70.7%	–
O=c1[nH]c(=O)n([C@H]2C[C@H](O)[C@@H](CO)O2)cc1C(F)(F)F [trifluridine]	–	110% and 95.7%	–
NCCCNCCSP(=O)(O)O [amifostine]	214% and 304%	–	-1.06% and -6.5%
Cn1c(=O)c2c(ncn2C)n(C)c1=O	–	86.9%	–
CCCC(C(=O)c1ccc(C)cc1)N1CCCC1 (stereo unspecified) [pyrovalerone]	174%	73.7%	-5.83%
CC(C)c1cccc(C(C)C)c1O [propofol]	216% and 214%	–	-3.79% and 0.00445%
CC1(C)[C@H](C(=O)O)N2C(=O)C[C@H]2S1(=O)=O [Sulbactam]	–	66.2%	–
